From patent US10206399B2, “Herbicidal composition comprising uracil compound as active ingredient” (Dongbu Farm Hannong Co., Ltd., priority 2012, dated 2019)
Several values for one entry are separate records, joined by “and”; a condition that tells them apart may be missing. Equal values may be shown once. Read-outs that look alike come from different tables or passages of the source. At least one read-out could not be matched to a standard name with certainty.

Assays:
Echinochloa crus = conditions: 16 g/ha
Abutilon theophrasti = conditions: 16 g/ha

C=CCOC(=O)C(C)(C)OC(=O)c1cc(-n2c(=O)cc(C(F)(F)F)n(C)c2=O)ccc1Cl [Butafenacil]
plant mortality, measured value (Echinochloa crus): 5 and 10 | plant mortality, measured value (Abutilon theophrasti): 51 and 46 and 35 and 60 | plant mortality, measured value (Aeschynomene indica; 8 g/ha): 49 and 30 and 40 | plant mortality, measured value (Aeschynomene indica; 16 g/ha): 67 and 71 and 45 and 65 | plant mortality, measured value (Xanthium spinosum; 4 g/ha): 20 and 10 | plant mortality, measured value (Xanthium spinosum; 16 g/ha): 74 and 60 and 55
